From the supplement of paper PMC11006884
The list shows a part of the results, in another mix than the full data.

The chains behind the UniProt entries cited, without tags or fusion partners. Where a name states a change or a piece, a line headed by the entry shows the natural chain unless it says otherwise.
UniProt O75152: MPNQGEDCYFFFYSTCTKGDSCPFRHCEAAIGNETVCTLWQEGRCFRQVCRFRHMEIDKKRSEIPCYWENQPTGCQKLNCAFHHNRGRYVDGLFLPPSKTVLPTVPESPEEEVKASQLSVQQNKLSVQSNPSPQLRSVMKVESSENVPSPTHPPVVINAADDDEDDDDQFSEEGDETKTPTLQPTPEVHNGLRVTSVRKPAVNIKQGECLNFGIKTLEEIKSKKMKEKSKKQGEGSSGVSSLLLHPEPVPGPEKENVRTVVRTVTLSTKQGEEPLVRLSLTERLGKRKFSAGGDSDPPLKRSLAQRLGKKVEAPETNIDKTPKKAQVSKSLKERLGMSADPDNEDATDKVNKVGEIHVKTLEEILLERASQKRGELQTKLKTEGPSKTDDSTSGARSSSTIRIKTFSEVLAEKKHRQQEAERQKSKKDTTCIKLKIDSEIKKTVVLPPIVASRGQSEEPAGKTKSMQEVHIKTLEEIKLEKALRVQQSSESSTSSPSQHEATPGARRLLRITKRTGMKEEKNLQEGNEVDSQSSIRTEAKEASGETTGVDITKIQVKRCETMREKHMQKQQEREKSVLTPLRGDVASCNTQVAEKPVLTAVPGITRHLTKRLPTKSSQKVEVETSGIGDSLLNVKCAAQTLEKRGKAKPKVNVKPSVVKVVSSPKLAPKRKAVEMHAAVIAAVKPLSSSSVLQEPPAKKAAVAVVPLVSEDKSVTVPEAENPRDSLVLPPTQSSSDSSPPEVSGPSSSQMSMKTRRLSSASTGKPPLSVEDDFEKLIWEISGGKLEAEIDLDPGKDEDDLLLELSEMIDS
UniProt O94762: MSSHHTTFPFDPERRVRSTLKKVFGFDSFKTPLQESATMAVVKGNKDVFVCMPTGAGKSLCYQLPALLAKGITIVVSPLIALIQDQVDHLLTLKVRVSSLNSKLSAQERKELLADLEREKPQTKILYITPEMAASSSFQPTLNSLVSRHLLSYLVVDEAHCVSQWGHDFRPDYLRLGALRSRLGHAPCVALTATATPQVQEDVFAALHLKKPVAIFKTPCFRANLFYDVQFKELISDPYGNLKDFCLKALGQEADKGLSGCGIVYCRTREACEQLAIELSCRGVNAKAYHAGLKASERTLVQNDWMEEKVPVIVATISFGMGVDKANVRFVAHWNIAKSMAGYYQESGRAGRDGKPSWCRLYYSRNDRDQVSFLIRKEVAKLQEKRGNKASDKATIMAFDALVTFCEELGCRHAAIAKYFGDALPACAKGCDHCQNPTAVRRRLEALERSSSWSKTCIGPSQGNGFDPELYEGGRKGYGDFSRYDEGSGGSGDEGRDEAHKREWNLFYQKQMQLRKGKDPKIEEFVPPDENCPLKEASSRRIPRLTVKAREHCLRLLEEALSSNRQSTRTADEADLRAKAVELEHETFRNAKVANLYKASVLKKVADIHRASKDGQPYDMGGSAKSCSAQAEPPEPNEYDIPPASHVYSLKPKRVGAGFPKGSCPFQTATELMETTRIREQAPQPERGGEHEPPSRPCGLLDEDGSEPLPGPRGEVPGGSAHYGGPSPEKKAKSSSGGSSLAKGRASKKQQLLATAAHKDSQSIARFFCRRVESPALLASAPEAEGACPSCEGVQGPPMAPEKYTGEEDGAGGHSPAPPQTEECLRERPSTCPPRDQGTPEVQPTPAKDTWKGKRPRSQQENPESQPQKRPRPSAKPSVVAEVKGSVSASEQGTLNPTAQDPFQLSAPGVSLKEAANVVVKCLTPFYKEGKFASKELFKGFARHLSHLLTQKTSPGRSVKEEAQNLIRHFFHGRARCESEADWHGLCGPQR
UniProt O43516: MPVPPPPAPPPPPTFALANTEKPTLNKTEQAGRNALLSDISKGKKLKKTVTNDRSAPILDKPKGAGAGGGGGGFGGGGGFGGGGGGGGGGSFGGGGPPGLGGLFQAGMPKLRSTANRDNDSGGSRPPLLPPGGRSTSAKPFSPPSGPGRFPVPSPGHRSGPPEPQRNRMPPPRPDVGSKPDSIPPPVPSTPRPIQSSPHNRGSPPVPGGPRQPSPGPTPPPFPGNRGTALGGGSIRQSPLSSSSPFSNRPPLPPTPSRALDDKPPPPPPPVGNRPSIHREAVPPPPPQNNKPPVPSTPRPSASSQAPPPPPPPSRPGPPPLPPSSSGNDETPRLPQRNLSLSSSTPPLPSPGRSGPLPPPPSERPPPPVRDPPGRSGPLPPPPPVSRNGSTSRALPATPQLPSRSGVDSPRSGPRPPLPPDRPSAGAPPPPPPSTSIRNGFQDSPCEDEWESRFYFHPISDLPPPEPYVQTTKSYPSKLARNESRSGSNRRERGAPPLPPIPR
UniProt O76003: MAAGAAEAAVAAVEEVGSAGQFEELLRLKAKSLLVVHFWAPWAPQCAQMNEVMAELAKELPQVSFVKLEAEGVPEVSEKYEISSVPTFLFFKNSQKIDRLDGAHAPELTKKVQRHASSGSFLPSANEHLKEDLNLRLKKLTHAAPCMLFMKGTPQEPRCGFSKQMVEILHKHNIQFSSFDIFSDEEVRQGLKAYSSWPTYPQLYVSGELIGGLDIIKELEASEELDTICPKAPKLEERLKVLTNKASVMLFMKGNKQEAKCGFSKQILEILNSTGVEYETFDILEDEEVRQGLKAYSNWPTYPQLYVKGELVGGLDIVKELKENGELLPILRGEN
UniProt O75348, whole entry, looked up: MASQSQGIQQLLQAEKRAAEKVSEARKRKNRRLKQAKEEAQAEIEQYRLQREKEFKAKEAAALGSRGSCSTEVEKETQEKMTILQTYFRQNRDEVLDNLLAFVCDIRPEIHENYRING
UniProt O75449: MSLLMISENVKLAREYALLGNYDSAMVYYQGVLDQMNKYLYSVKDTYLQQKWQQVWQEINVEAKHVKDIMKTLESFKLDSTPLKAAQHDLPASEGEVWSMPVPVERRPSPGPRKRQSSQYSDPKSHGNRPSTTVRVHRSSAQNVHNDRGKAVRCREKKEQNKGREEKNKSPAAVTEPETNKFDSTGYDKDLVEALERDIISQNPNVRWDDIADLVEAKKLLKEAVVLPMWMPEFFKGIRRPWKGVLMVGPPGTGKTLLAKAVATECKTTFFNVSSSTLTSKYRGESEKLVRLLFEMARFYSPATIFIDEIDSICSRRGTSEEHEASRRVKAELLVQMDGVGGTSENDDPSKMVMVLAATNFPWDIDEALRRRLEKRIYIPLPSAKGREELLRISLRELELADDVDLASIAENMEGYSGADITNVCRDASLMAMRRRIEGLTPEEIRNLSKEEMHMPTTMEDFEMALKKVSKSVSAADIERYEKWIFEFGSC
UniProt O60832: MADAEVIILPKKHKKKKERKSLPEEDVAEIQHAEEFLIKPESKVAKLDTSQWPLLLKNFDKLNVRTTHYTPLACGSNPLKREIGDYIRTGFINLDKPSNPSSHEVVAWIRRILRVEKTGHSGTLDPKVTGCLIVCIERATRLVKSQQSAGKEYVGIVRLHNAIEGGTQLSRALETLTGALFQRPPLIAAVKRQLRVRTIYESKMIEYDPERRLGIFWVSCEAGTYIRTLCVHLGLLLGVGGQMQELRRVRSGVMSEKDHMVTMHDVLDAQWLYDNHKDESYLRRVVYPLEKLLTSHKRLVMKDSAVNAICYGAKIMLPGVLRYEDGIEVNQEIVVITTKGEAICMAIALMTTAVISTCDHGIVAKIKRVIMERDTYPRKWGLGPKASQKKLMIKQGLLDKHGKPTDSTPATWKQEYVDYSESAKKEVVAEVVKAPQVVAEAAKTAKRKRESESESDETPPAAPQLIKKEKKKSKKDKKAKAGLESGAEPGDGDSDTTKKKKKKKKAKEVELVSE
UniProt O43583: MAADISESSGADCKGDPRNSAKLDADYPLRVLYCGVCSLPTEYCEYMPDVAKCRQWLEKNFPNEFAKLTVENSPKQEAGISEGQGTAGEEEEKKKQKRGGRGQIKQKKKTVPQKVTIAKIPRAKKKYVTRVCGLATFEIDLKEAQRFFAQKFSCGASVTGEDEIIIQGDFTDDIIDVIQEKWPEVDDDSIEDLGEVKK
UniProt O75369, whole entry, looked up: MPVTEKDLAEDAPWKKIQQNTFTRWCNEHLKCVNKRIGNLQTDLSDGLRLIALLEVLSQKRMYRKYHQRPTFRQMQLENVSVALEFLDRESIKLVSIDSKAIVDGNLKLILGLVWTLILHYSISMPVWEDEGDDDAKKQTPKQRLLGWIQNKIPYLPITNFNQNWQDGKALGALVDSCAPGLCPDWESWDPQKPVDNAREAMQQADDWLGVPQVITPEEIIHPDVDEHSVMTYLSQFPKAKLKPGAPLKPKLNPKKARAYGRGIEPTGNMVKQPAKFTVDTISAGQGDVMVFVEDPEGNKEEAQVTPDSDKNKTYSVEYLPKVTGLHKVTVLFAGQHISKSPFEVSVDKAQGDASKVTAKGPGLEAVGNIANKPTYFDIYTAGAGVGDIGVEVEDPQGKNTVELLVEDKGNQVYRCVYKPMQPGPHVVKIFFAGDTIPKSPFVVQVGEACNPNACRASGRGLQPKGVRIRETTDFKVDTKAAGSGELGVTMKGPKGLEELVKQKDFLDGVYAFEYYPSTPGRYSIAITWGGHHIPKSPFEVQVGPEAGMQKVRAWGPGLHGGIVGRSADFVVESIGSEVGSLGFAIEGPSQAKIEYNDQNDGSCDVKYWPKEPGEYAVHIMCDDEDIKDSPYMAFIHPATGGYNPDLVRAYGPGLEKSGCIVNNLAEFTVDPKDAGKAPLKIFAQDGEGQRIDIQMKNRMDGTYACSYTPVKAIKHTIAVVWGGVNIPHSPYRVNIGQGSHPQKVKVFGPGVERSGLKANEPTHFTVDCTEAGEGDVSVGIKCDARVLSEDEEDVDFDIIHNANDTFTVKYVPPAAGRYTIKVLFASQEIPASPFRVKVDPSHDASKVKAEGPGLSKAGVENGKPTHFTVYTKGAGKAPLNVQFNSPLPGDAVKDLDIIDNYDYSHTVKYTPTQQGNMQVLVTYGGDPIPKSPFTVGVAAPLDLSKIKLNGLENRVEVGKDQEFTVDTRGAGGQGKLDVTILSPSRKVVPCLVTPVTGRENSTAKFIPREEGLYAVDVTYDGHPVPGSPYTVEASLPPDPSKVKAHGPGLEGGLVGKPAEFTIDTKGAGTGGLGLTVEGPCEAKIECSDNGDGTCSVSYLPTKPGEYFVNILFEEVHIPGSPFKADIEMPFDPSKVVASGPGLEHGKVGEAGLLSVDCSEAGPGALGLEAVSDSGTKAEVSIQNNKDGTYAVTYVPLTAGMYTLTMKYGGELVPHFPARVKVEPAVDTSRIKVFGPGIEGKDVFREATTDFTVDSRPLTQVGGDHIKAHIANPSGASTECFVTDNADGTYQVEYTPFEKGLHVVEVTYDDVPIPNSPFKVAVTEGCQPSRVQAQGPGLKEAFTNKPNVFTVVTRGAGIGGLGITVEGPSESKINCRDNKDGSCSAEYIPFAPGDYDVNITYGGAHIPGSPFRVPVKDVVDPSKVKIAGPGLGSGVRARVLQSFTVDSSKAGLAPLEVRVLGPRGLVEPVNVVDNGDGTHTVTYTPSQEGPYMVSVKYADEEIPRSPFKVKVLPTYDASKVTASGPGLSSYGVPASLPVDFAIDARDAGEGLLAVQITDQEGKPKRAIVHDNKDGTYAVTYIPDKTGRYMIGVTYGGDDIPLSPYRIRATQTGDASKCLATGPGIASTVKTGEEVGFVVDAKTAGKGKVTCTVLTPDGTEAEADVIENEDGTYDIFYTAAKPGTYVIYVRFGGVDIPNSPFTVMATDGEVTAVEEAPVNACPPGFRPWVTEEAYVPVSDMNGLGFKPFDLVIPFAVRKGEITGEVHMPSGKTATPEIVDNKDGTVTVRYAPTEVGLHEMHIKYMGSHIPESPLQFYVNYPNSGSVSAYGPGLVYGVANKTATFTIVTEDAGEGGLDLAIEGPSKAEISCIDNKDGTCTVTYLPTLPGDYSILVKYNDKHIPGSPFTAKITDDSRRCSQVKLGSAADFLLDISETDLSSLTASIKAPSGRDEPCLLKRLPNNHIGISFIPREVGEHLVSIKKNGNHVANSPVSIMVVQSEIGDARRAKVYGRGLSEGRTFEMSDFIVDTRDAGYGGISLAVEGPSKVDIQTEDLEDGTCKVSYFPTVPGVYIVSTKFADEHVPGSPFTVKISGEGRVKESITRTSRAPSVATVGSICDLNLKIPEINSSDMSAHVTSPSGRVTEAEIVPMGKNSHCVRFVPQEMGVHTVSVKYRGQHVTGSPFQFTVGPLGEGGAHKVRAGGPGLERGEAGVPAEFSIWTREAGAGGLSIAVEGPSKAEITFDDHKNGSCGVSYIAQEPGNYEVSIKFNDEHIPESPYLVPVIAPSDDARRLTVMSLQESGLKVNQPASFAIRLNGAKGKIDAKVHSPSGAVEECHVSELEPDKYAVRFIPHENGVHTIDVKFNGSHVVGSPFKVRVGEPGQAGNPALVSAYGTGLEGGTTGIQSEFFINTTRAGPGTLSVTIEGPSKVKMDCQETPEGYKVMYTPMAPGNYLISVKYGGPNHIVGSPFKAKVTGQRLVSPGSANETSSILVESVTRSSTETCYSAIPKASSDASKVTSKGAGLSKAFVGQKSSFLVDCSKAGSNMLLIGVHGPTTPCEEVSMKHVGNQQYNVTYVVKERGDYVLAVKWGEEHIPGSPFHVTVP

Each target was assayed with COC(=O)C#Cc1ccccc1 [methyl 3-phenylpropiolate] (assay: log2 ratio of iodoacetamide-alkyne labeling of the cysteine site, DMSO over compound (competition); higher = stronger covalent engagement of the cysteine by the compound, active = 1 or more). Conditions: 500 µM; treatment time 1 h; system: HEK293T cell lysate.
Summary of the method: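 Electrophile (500 µM) or vehicle was added to HEK293T lysate (2 mg/mL) for 1 h at ambient temperature before iodoacetamide alkyne labelling (1 h) and click coupling to sCIP-TMT reagents. After pooling, overnight trypsin digestion at 37 °C, streptavidin enrichment and acid elution, peptides were measured by Orbitrap Eclipse LC-MS/MS with FAIMS and quantified in FragPipe. Each cysteine's log2 competition ratio compares mean control-channel with mean compound-channel reporter intensity, control over compound. Data came from duplicate channels across three replicates, excluding cysteines quantified in only one replicate.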

log2 ratio of iodoacetamide-alkyne labeling, inactive:
ZC3H11A C209 (UniProt O75152) 0.569
USO1 C303 (UniProt O60763) 0.712
HNRNPR C99 (UniProt O43390) 0.315
UniProt O60282_C393 0.179
RANBP6 C48 (UniProt O60518) -0.059
CBR3 C143 (UniProt O75828) 0.0488
RECQL5 C457 (UniProt O94762) 0.793
OPA1 C801 (UniProt O60313) 0.154
MYO1B C310 (UniProt O43795) 0.36
NBN C478 (UniProt O60934) 0.83
WIPF1 C446 (UniProt O43516) 0.707
GLRX3 C46 (UniProt O76003) -0.0384
NDUFS7 C183 (UniProt O75251) 0.368
UniProt O60664_C341 0.384
ROCK2 C649 (UniProt O75116) 0.0353
MRPS14 C91 (UniProt O60783) 0.375
EPB41L2 C232 (UniProt O43491) 0.584
ATP6V1G1 C69 (UniProt O75348) 0.555
PAPSS1 C165 (UniProt O43252) 0.0259
ZC3H11A C636 (UniProt O75152) 0.591
NUP155 C704 (UniProt O75694) 0.168
AKR7A2 C214 (UniProt O43488) -0.123
ROCK2 C804 (UniProt O75116) 0.197
KATNA1 C491 (UniProt O75449) 0.112
UniProt O60232_C70 0.131
UniProt O75521_C312 0.431
EPB41L2 C424 (UniProt O43491) 0.17
PRPSAP2 C31 (UniProt O60256) 0.239
DKC1 C74 (UniProt O60832) 0.427
UniProt O43913_C10 0.908
AKAP8 C139 (UniProt O43823) 0.676
KATNA1 C314 (UniProt O75449) 0.147
DENR C132 (UniProt O43583) -0.0841
UniProt O60610_C796 0.413
FLNB C2556 (UniProt O75369) 0.079

Looked up one by one from the entries so far, two records:
log2 ratio of iodoacetamide-alkyne labeling, inactive:
UniProt O60282_C393 0.179
ZC3H11A C636 (UniProt O75152) 0.591

Following part:

log2 ratio of iodoacetamide-alkyne labeling, active:
HTATSF1 C471 (UniProt O43719) 1.14
EIF5B C853 (UniProt O60841) 1
